Results: patent publication US9591855B2, “Diindol-3-ylmethanes as potent non-toxic antifouling compounds” (Hong Kong University of Science and Technology, priority 2014, dated 2017)

test system: Balanus amphitrite cypris larvae
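Further: larvae held in 24-well plates with compound in seawater, dark, 48 h, settled larvae (attached plus metamorphosed) and dead or missing larvae counted microscopically as percent of total per well.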

Question: Which LC50/EC50 does the source give for `c1ccc2c(Cc3c[nH]c4ccccc34)c[nH]c2c1` [Compound 1, di(1H-indol-3-yl)methane] here?
Answer: Its LC50/EC50 is over 53.

Question: For `CC(=O)Oc1ccc(C(c2c[nH]c3ccccc23)c2c[nH]c3ccccc23)cc1` [Compound 9, 4-[di(1H-indol-3-yl)methyl]phenyl acetate], which LC50/EC50 is on record?
Answer: Its LC50/EC50 is over 28.

Question: `OCC(O)C(c1c[nH]c2ccccc12)c1c[nH]c2ccccc12` (stereo not drawn) [Compound 3, 3,3′-di-1H-indol-3-yl-1,2-propandiol] was tested. Which LC50/EC50 did it give?
Answer: The LC50/EC50 was over 17.

Question: With `CC(c1c[nH]c2ccccc12)c1c[nH]c2ccccc12` [Compound 2, vibrindole A] as the compound, how does the LC50/EC50 read?
Answer: The LC50/EC50 was over 34.

Question: Which LC50/EC50 does the source give for `Oc1ccc(C(c2c[nH]c3ccccc23)c2c[nH]c3ccccc23)cc1` [Compound 8, 4-(di(1H-indol-3-yl)methyl) phenol] here?
Answer: The LC50/EC50 was over 70.

Question: How did the LC50/EC50 turn out when `c1ccc(C(c2c[nH]c3ccccc23)c2c[nH]c3ccccc23)cc1` [Compound 7, 3,3′-(phenylmethylene) bis-1H-indole] was run?
Answer: The LC50/EC50 was over 42.

Question: Which LC50/EC50 does the source give for arsindoline A [Compound 6] here?
Answer: The LC50/EC50 was over 26.

Question: How did the LC50/EC50 turn out when `c1ccc2[nH]ccc2c1` [Indole, indole, reference compound] was run?
Answer: The LC50/EC50 was 4.72.

Question: For `O=C(c1c[nH]c2ccccc12)C(c1c[nH]c2ccccc12)c1c[nH]c2ccccc12` [Compound 5, 1,2,2-tri(1H-indol-3-yl) ethanone], which LC50/EC50 is on record?
Answer: The LC50/EC50 was over 30.
